Data as given in PubChem BioAssay AID504784 (Drosophila RNAi Screening Center, 2011)

Purpose: 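Fly genes whose silencing alters how much lipid cells keep in droplets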 (primary screen)
Cell system: Drosophila Kc167 embryonic cells
Reagents: long dsRNA against Drosophila genes, about 250 ng dsRNA per well
Timing: 4 days
Treatment: cells fed 400 µM oleic acid bound to BSA
Detection: 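Microscope images give a droplet-to-nucleus area ratio, taken as log and converted to a screen-wide B-score; higher values mean greater lipid storage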
Reading the numbers: droplet/nuclear area B-score: higher = more stored lipid (overstorage)
In all, the deposit lists about 17,000 reagents; this is an unselected part of those that have a named target and a result. 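Each column is one replicate's B-score; the combined score over replicates was not deposited, so single values may mislead.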 Further read-outs or replicates are left out here.

gene	amplicon	droplet/nuclear area B-score, replicate 1
cindr	DRSC14126	-0.478
cindr	DRSC14298	0.461
Mst36Fa	DRSC21564	0.209
lok	DRSC03567	0.0979
Hr51	DRSC06627	-0.216
Hr51	DRSC22829	-2.24
Rpn13R	DRSC18404	1.17
CG6813	DRSC16122	-2.39
CG14893	DRSC15015	-0.655
TpnC4	DRSC04856	0.105
Tep2	DRSC02679	0.0286
Tep2	DRSC03451	0.311
CG10413	DRSC02052	1.22
CG9689	DRSC18440	-0.33
CCDC53	DRSC03056	-1.36

Already shown: entries from further up.
gene	amplicon	droplet/nuclear area B-score, replicate 1
Hr51	DRSC22829	-2.24
Rpn13R	DRSC18404	1.17
CG6813	DRSC16122	-2.39
CG14893	DRSC15015	-0.655

Continued:
gene	amplicon	droplet/nuclear area B-score, replicate 1
CG18577	DRSC15352	-0.214
CG8641	DRSC11028	-1.13
CG13101	DRSC02201	0.197
Pdzd8	DRSC19355	-0.691
Or83c	DRSC12359	0.0827
Takl1	DRSC13443	-0.885
CG12661	DRSC17864	-0.0766
mGluR	DRSC17215	-2.65
Cyp12b2	DRSC07364	0.917
CG31548	DRSC22640	-0.589
CG32694	DRSC17844	3.1
CG32694	DRSC17855	0.674
CG32694	DRSC22670	1.45
Notum	DRSC09959	1.86
tai	DRSC02207	0.492
tai	DRSC02673	-0.816
CG16815	DRSC02521	-1.76
ClC-c	DRSC10499	-0.00166
CG30148	DRSC06391	0.571
